Data taken from ChEMBL document CHEMBL3988442, “University of Dundee, Small-Polar-MMV Screening Library” (2021).

T. brucei: 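Whole-parasite assay of Trypanosoma brucei over 72 hours; the read-out is not stated. Tested at 30 µM. Direction is inferred from retests: higher values go with stronger inhibition. Values scatter widely below zero; nearly all retest evidence comes from the higher of the two concentrations used. Of about 64,000 compounds tested this way, about 940 (1.5%) reached 50% or more in at least one test.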
Leishmania in macrophages: 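Cell assay of Leishmania donovani living inside macrophages; the read-out is not stated. Tested at 30 µM. Direction is inferred from retests: higher values go with stronger inhibition. Size under these conditions: about 69,000 compounds, about 1,000 of them at 50% or above in at least one test.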
Toxoplasma: 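Assay of Toxoplasma gondii numbers, read through their beta-galactosidase reporter with a colour substrate. Concentration: 10 µM. Higher reads as fewer parasites (inferred from which compounds were picked for retests). Size under these conditions: about 67,000 compounds, about 260 of them at 50% or above in at least one test.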

Results are given as percent effect.
How 0% and 100% were set is not recorded. Most values in the screen are low, and negative values occur.
Compounds were drawn at random from those tested, without regard to their results.
Two or more numbers in one place are separate tests of the same structure; such repeats can differ widely.

With CCC(=O)N1CCC(c2nc(N3CCCC3)ncc2S(C)(=O)=O)CC1 the screen gave T. brucei: -11.5%; Leishmania in macrophages: -43.59%; Toxoplasma: -1.839%.
With CCCN1CCCn2nc(CNS(=O)(=O)c3ccc(C)cc3)cc2C1 the screen gave T. brucei: -10.87%; Leishmania in macrophages: 43.47%; Toxoplasma: -5.453%.
With CCc1nc(CN2CCCN(Cc3nnc(C4CC4)o3)CC2)no1 the screen gave T. brucei: 10.81%; Leishmania in macrophages: 21.38%; Toxoplasma: -10.68%.
With CN1CC(=O)N(C2CCNCC2)Cc2c(NC3CCC3)ncnc21 the screen gave Leishmania in macrophages: -3.425%; Toxoplasma: -7.164%.
With CCCN(C)C(=O)c1cc(Br)cc(S(=O)(=O)N2CCOCC2)c1F the screen gave T. brucei: -45.12%; Leishmania in macrophages: 13.07%; Toxoplasma: 0.6483%.
With Cn1ccnc1-c1cccc(NC(=O)NCC(=O)NC(C)(C)C)c1 the screen gave T. brucei: -21.02%; Leishmania in macrophages: -6.98%; Toxoplasma: 6.078%.
With CC(=O)N1CCC(c2cccc(-c3cccc(C(=O)O)c3)n2)CC1 the screen gave Leishmania in macrophages: 2.224%; Toxoplasma: 1.034%.
With CCc1ncc2c(n1)CN(Cc1nc(-c3cccs3)no1)CC2 the screen gave T. brucei: 23.11%; Leishmania in macrophages: 33.98%; Toxoplasma: 6.814%.
With Cn1cncc1-c1nnc([C@H]2CCN(C3CCOCC3)C2)o1 the screen gave T. brucei: -4.633%; Leishmania in macrophages: 19.12%; Toxoplasma: 2.652%.
With CN(Cc1ccccc1)c1ccc(C(F)(F)F)cn1 the screen gave T. brucei: -7.143%; Leishmania in macrophages: 14.63%; Toxoplasma: 1.097%.
With COc1ccc(Cc2ncc3c(n2)CN(C(=O)CO)C3)cc1 the screen gave T. brucei: 7.772%; Leishmania in macrophages: 27.06%; Toxoplasma: -0.7493%.
With N[C@H]1CN(C(=O)c2ccc(Cl)cc2F)C[C@@H]1C1CC1 the screen gave T. brucei: -40.55%; Leishmania in macrophages: 33.99%; Toxoplasma: 7.31%.
With O=C(Nc1ccccn1)C1CCN(Cc2cc3c(cc2O)OCO3)CC1 the screen gave T. brucei: -17.4%; Leishmania in macrophages: 27.01%; Toxoplasma: -2.282%.
With O=C(NC[C@]1(O)CCN(Cc2ccccc2F)C[C@H]1O)c1c[nH]cn1 the screen gave T. brucei: -10.98%; Leishmania in macrophages: -40.25%; Toxoplasma: 3.537%.
With CCN1CCN(C2CCN(Cc3cc(C)on3)CC2)C1=O the screen gave T. brucei: -7.46%; Leishmania in macrophages: -5.833%.
With CCc1ncc(C(=O)N(C)CCc2nc3cc(OC)ccc3[nH]2)cn1 the screen gave Leishmania in macrophages: -20.26%; Toxoplasma: -0.1134%.
With COCCOc1ncccc1C(=O)N1CCCn2ncnc21 the screen gave T. brucei: -1.727%; Leishmania in macrophages: 3.826%; Toxoplasma: 5.487%.
With COCC(=O)N1CCC(c2nc3ccc(N4CCOCC4)cn3n2)CC1 the screen gave T. brucei: 4.535%; Leishmania in macrophages: 13.19%; Toxoplasma: -0.7685%.
With CCN1CCN(S(=O)(=O)c2ncn(C)c2Cl)CC1 the screen gave T. brucei: 8.557%; Leishmania in macrophages: 26.56%; Toxoplasma: -3.548%.
With O=C(c1ncccc1O)N1CCN(Cc2ccco2)C(CCO)C1 (centres undefined) the screen gave T. brucei: -14.78%; Leishmania in macrophages: -9.935%; Toxoplasma: -1.674%.
With CCN1CCC(NC(=O)CN2CCCC(NS(C)(=O)=O)C2)CC1 (centres undefined) the screen gave T. brucei: -7.512%; Leishmania in macrophages: 24%; Toxoplasma: 2.02%.
With CSCC1CCN(c2nc(N)ncc2C)CC1 the screen gave Leishmania in macrophages: 11.72%; Toxoplasma: -41.9%.
With CSCC(=O)N1C[C@H](c2ccc(C)o2)[C@@H](N)C1 the screen gave T. brucei: -3.424%; Leishmania in macrophages: 20.14%; Toxoplasma: -8.365%.
With O=C(O)C(F)(F)F.[H][C@@]12CCN(Cc3scnc3C)C[C@@]1([H])O[C@@H](c1noc(C)n1)C2 the screen gave T. brucei: -67.94%; Leishmania in macrophages: 13.16%; Toxoplasma: 12.02%.
With Cc1cc(C)c2cc(CNCc3ccco3)c3nn(C)c(=O)n3c2c1 the screen gave T. brucei: 8.532%; Leishmania in macrophages: 0.8239% & -8.268%; Toxoplasma: 1.759%.
With Cc1nn(Cn2ccc(C(=O)N3CCOCC3)n2)c(C)c1Cl the screen gave T. brucei: -28.28%; Leishmania in macrophages: 8.251%; Toxoplasma: 15.45%.
With Oc1cc(C2CCCCN2Cc2cccs2)nc(-c2ccncc2)n1 (centres undefined) the screen gave T. brucei: -2.917%; Leishmania in macrophages: 22.31%; Toxoplasma: -14.06%.
With O=C(NCC1CC1)C1CSCN1S(=O)(=O)c1ccccc1F (centres undefined) the screen gave T. brucei: -8.194%; Leishmania in macrophages: -13.21%; Toxoplasma: -20.48%.
With CN(CCc1ccncc1)CCc1nccs1 the screen gave T. brucei: -26.63%; Leishmania in macrophages: -4.975%; Toxoplasma: -7.374%.
With CCCC(O)CNc1cncc(Br)c1 (centres undefined) the screen gave T. brucei: -77.48%; Leishmania in macrophages: 5.597%; Toxoplasma: -2.266%.
With COc1cnc(CSc2nnc(C)s2)cc1OCC(N)=O the screen gave T. brucei: -19.94%; Leishmania in macrophages: 24.78% & 20.77%; Toxoplasma: 1.067%.
With O=C(O)c1ccc(CC2CCN(Cc3ccc(-c4cc[nH]n4)o3)C2)cc1 (centres undefined) the screen gave T. brucei: -43.04%; Leishmania in macrophages: -33.6%; Toxoplasma: 18.24%.
With CCc1ccc(-n2nnc(C(=O)O)c2-c2ccccn2)cc1 the screen gave T. brucei: -23.65%; Leishmania in macrophages: 8.046%; Toxoplasma: 5.705%.
With Cc1cc(C(=O)NCC2Cn3nnc(C)c3CO2)no1 (centres undefined) the screen gave T. brucei: -22.79%; Leishmania in macrophages: 15.43%; Toxoplasma: 0.9042%.
With CCNC(=O)c1ccc(NC(=O)N(C)Cc2cccn2C)c(C)c1 the screen gave T. brucei: -35.88%; Leishmania in macrophages: 25.2%; Toxoplasma: 14.45%.
With Fc1ccccc1CC1CCN(Cc2nccs2)CC1 the screen gave T. brucei: -13.75%; Leishmania in macrophages: 8.048%; Toxoplasma: 15.82%.

The last 2 entries again:

* CCNC(=O)c1ccc(NC(=O)N(C)Cc2cccn2C)c(C)c1 | T. brucei: -35.88%; Leishmania in macrophages: 25.2%; Toxoplasma: 14.45%
* Fc1ccccc1CC1CCN(Cc2nccs2)CC1 | T. brucei: -13.75%; Leishmania in macrophages: 8.048%; Toxoplasma: 15.82%